Experimental data published in US8993624B2, “Method of preventing and treating inflammatory diseases and disorders with abscisic acid” (Virginia Tech Intellectual Properties, Inc., priority 2010, dated 2015).
For at least one compound, name, drawing or mass did not settle the structure.

Columns and labels:
influenza virus = conditions: highly pathogenic strain; cited from earlier work
[1] = system: LPS-induced systemic inflammation; test: LPS challenge in mice, immune cell subsets by flow cytometry; assay type: in vivo, mouse
Method: Flow Cytometry—Mesenteric lymph nodes (MLN) and spleen-derived cells (2×10^5 cells/well) or whole blood (10 μL/well) were seeded onto 96-well plates, centrifuged at 4° C. at 3000 rpm for 4 minutes, and washed with PBS containing 5% fetal bovine serum and 0.09% sodium azide (FACS buffer). To assess differential monocyte/macrophage subsets, the cells were incubated in the dark at 4° C. for 20 minutes in FcBlock (20 μg/ml; BD Pharmingen), and then for an additional 20 minutes with fluorochrome-conjugated primary antibodies anti-F4/80-PE-Cy5 (5 μg/mL, eBioscience) and anti-CD 11b-Alexa Fluor 700 (2 μg/mL, eBioscience), and anti-TLR-4-PE-Cy7 (2 μg/mL, eBioscience). For lymphocyte assessment, cells were incubated with anti-CD4-FITC (2 μg/mL; BD Pharmingen), anti-CD8-PerCp-Cy5.5 (2 μg/mL, eBioscience), CD3 PE-Cy5 (2 μg/mL; BD Pharmingen), anti-TLR-4 PE-Cy7, and anti-IL17A-PE (2 μg/mL, eBioscience) as previously shown (23). Flow results were computed with a BD LSR II flow cytometer and data analyses was performed with FACS Diva software (BD).

CCc1ccc(CCOc2ccc(CC3SC(=O)NC3=O)cc2)nc1 (stereo not drawn) [PGZ, pioglitazone, reference compound]
survivability (influenza virus): improves survivability of mice
TLR4 expression in CD8+ T cells ([1]; non-LPS treated mice): significantly reduced
TLR4 expression in MLN F4/80+CD11b+ macrophages ([1]; supplemented diet 36 days): significantly suppressed
